Measured values taken from US20090029418.

The chains behind the UniProt entries cited, without tags or fusion partners. Where a name states a change or a piece, a line headed by the entry shows the natural chain unless it says otherwise.
UniProt P34906: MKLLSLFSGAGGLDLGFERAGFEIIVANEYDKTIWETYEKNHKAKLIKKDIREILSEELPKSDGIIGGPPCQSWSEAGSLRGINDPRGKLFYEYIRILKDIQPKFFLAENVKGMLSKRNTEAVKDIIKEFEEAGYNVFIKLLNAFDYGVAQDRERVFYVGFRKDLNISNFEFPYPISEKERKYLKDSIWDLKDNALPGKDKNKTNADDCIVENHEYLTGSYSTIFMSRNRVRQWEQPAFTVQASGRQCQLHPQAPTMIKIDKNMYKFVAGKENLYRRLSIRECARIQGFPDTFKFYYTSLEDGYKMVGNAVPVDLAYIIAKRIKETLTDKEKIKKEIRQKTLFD

Assays:
FnuDI methylase = FnuDI methylase (UniProt P34906); test: activity in cells; settings: genomic DNA resistant to StuI; GGCC, 5mC type; protein in cells; protein details: pACYC184fnuDIM in E. coli; only the site is given
[1] = tested on: T1, StuI methylase (M.StuI, stuIM) (Streptomyces tubercidicus); test: activity in cells; settings: pST2 plasmid resistant to StuI digestion; unmodified PCR product is cleaved; protein in cells; only the site is given
T1 sequence: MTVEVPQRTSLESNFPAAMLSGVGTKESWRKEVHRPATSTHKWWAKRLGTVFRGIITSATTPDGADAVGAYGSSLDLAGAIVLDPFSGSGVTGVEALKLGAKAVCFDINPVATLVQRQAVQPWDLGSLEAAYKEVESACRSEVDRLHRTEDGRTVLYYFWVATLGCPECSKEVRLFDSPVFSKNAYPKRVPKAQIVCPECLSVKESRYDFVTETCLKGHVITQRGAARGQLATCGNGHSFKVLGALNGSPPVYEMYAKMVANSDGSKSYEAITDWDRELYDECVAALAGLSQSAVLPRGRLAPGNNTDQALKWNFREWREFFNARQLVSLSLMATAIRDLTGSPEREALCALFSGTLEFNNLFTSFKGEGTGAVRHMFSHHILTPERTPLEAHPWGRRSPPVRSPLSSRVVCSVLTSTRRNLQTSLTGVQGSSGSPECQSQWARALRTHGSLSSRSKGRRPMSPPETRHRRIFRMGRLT

| Sequence | activity on this sequence (FnuDI methylase) | activity on this sequence [1] |
| --- | --- | --- |
| AGGCCT (double strand) [E. coli genomic DNA StuI site] | active | – |
| GCTTTTCTGTGACTGGTGAGGCCTCAACCAAGTCATTCTGAG / CTCAGAATGACTTGGTTGAGGCCTCACCAGTCACAGAAAGC [pUC2iStuI StuI sites in pST2] | – | active |

For some assays here: The exact form of at least one protein or probe is not confirmed. For some assays here: Where a protein sequence is shown, tags need not be part of it.
